Data published in article PMC10501187.
Where a chain is given by its changes, count along the chain named. Numbers in names are those of the source. Read-outs that look alike come from different tables or passages of the source. Results are given in words; binding and its absence hold for the method and conditions named. In cells and extracts the contact can be indirect. Some binding calls cover weakened binding; strength is not graded here.

Sequences of proteins named here, by UniProt entry; tags and fusion partners are left off.
UniProt P60520: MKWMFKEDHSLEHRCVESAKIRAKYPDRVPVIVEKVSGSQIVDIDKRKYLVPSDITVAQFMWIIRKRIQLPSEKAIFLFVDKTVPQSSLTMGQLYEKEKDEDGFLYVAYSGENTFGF
UniProt O95166: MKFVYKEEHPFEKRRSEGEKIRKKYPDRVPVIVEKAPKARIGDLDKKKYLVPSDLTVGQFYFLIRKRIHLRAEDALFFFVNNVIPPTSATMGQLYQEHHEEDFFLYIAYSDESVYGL

B1: ORP8-T54A (protein, UniProt Q9BZF1 1-889)
chain: MEGGLADGEPDRTSLLGDSKDVLGPSTVVANSDESQLLTPGKMSQRQGKEAYPAPTKDLHQPSLSPASPHSQGFERGKEDISQNKDESSLSMSKSKSESKLYNGSEKDSSTSSKLTKKESLKVQKKNYREEKKRATKELLSTITDPSVIVMADWLKIRGTLKSWTKLWCVLKPGVLLIYKTQKNGQWVGTVLLNACEIIERPSKKDGFCFKLFHPLEQSIWAVKGPKGEAVGSITQPLPSSYLIIRATSESDGRCWMDALELALKCSSLLKRTMIREGKEHDLSVSSDSTHVTFYGLLRANNLHSGDNFQLNDSEIERQHFKDQDMYSDKSDKENDQEHDESDNEVMGKSEESDTDTSERQDDSYIEPEPVEPLKETTYTEQSHEELGEAGEASQTETVSEENKSLIWTLLKQVRPGMDLSKVVLPTFILEPRSFLDKLSDYYYHADFLSEAALEENPYFRLKKVVKWYLSGFYKKPKGLKKPYNPILGETFRCLWIHPRTNSKTFYIAEQVSHHPPISAFYVSNRKDGFCLSGSILAKSKFYGNSLSAILEGEARLTFLNRGEDYVMTMPYAHCKGILYGTMTLELGGTVNITCQKTGYSAILEFKLKPFLGSSDCVNQISGKLKLGKEVLATLEGHWDSEVFITDKKTDNSEVFWNPTPDIKQWRLIRHTVKFEEQGDFESEKLWQRVTRAINAKDQTEATQEKYVLEEAQRQAARDRKTKNEEWSCKLFELDPLTGEWHYKFADTRPWDPLNDMIQFEKDGVIQTKVKHRTPMVSVPKMKHKPTRQQKKVAKGYSSPEPDIQDSSGSEAQSVKPSTRRKKGIELGDIQSSIESIKQTQEEIKRNIMALRNHLVSSTPATDYFLQQKDYFIIFLLILLQVIINFMFK
B2: ORP8-S65A (protein, UniProt Q9BZF1 1-889)
chain: B1 chain with A54T, S65A
B3: ORP8-T54A/S65A (protein, UniProt Q9BZF1 1-889)
chain: B1 chain with S65A

Assays:
Test in all cases: pull-down; purified GST-ATG8 family protein on GSH beads incubated with HEK293T lysates overexpressing HA-tagged ORP8, ORP8 mutants or ORP5; NP-40 buffer, 4°C, 2 h; Western blot; in Fig. 5G/H the cells were glucose- and serum-starved for 6 h; only the target purified
GST-LC3A = GST-LC3A (UniProt Q9H492)
GST-GABARAPL2 = GST-GABARAPL2 (UniProt P60520)
GST-GABARAP [1] = target: GST-GABARAP (UniProt O95166)
GST-GABARAP [2] = target: GST-GABARAP (UniProt O95166); remark: listed apart in the source

Row | Molecule | binding (GST-LC3A) | binding (GST-GABARAPL2) | binding (GST-GABARAP [1]) | binding (GST-GABARAP [2])
1 | HA-ORP8 (from UniProt Q9BZF1 1-889) | binds | binds | binds | –
2 | B1 | – | – | – | binds
3 | B2 | – | – | – | binds
4 | B3 | – | – | – | binds
